Test results from US20100003711A1, “Methods to identify therapeutic agents” (THE SCRIPPS RESEARCH INSTITUTE, priority 2005, published 2010).

system: J774A.1 macrophages; experiment: Cholesterol ozonation product uptake and localization by fluorescence microscopy; type: cell-based, murine; conditions: 50 μM dansyl derivatives, 5 min to 1 h, without LDL

SMILES | uptake and localization in macrophages
CC(C)CCC[C@@H](C)[C@H]1CCC2C(CC=O)C([C@@]3(C)CC[C@H](O)CC3=O)CC[C@@]21C (stereo partly shown) [4a, 3βHydroxy-5-oxo-5,6-secocholestan-6-al] | efficiently taken up by macrophages even when not complexed with LDL
CC(C)CCC[C@@H](C)[C@H]1CCC2C3C(CC[C@@]21C)[C@@]1(C)CC[C@H](O)C[C@@]1(O)[C@@H]3C=O (stereo partly drawn) [5a, 3β-Hydroxy-5β-hydroxy-B-norcholestane-6βcarboxaldehyde] | efficiently taken up by macrophages even when not complexed with LDL
C[C@H](CCCC(=O)NS(=O)(=O)c1cccc2c(N(C)C)cccc12)[C@H]1CCC2C3C(CC[C@@]21C)C1(C)CC[C@H](O)CC1(O)[C@@H]3C=O (stereo partly shown) [5e] | initial punctate cytosolic accumulation
C[C@H](CCCC(=O)NS(=O)(=O)c1cccc2c(N(C)C)cccc12)[C@H]1CCC2C3CC=C4C[C@@H](O)CCC4(C)C3CC[C@@]21C (stereo partly shown) [9d, reference compound] | minimal fluorescence
